The full ranking holds about 33,000 sequences; the median of “E-score (-0.5 to 0.5)” is about -0.015, and the highest 2% start at about 0.3. This is one part of the list.
These sequences were tested against T1, Abf1 (UniProt P14164) (assay: PBM E-score (8-mer binding enrichment) (E-score (-0.5 to 0.5)); higher = stronger / more preferred TF binding). Settings: protein concentration: 200 nM; construct: GST-full length.
T1 sequence: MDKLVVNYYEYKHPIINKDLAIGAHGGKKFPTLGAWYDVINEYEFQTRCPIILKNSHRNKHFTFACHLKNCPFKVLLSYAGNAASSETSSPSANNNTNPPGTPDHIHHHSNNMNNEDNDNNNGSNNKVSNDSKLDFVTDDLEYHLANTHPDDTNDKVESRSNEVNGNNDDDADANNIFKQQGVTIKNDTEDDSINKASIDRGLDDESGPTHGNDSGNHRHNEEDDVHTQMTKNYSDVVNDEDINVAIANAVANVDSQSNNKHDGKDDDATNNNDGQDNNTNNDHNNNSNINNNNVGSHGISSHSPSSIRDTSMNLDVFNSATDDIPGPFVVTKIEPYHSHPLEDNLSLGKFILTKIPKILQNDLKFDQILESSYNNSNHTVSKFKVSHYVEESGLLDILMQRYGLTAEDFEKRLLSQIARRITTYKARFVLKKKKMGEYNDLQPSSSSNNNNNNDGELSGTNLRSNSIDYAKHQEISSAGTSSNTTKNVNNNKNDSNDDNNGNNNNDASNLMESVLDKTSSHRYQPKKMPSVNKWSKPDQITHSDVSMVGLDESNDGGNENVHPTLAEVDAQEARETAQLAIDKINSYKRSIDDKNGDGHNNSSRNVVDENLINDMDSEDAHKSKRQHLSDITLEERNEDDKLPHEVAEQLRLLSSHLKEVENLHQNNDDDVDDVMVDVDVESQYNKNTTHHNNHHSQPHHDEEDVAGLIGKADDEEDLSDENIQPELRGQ
Procedure, shortened: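 Using PURExpress in vitro transcription/translation, GST-tagged yeast transcription factors were made in full-length or DNA-binding-domain form. These were applied at about 100-200 nM to double-stranded universal all-10-mer Agilent arrays, and bound protein was detected with fluorescent anti-GST. Scans were normalised with masliner before the Universal PBM Analysis Suite assigned E-scores to ungapped eight-base words pooled with their reverse complements.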

Row | Sequence | PBM E-score
1 | ACTTCGAA | 0.169
2 | ATTGACGC | -0.156
3 | AGAGTCAT | -0.242
4 | AGCGTCAA | -0.00287
5 | GCGCGTTA | 0.131
6 | CGTGGTCA | 0.075
7 | AATATTAC | 0.196
8 | ACTCTGGC | -0.0261
9 | ATAAAATG | 0.272
10 | CAGTATCC | -0.112
11 | GAACCGAC | 0.0311
12 | CGGATAAC | 0.136
13 | GGGCGCAC | -0.245
14 | CTCCCTAC | -0.14
15 | AGCGGGAT | -0.0541
16 | ATATCGCA | 0.144
17 | AAGGACCA | -0.137
18 | ATTGAGTA | 0.117
19 | CCGGGAGG | -0.279
20 | CAGAAGGC | -0.197
21 | CGAAATGA | 0.273
22 | CTGTTGGA | -0.157
23 | AGACAGAA | -0.0173
24 | GATATGGC | -0.105
25 | ATTTCATG | 0.0812

Row | Sequence | PBM E-score
26 | GGAGACTA | -0.107
27 | ACACGTGT | 0.0282
28 | AGGATGAC | 0.258
29 | ATGGTCGA | 0.0957
30 | ACAGATGG | -0.205
31 | CGGTATTA | -0.0111
32 | GAACGTCA | 0.102
33 | GGAAGAGA | 0.0148
34 | CCGCCAGC | -0.27
35 | GCTATATA | -0.0469
36 | CGATCAAC | 0.129
37 | CCCCGCTC | -0.347
38 | ACGGTCCA | 0.0955
39 | ATGAGATG | 0.0829
40 | ACATCACG | 0.231
41 | ACCGCCCC | -0.253
42 | TACACTAA | 0.114
43 | TAGCTGAA | -0.089
44 | ATGGCCTG | -0.399
45 | AAAGAGCC | -0.106
46 | CTTTGCTC | -0.0823
47 | AGCTTAAG | -0.0633
48 | GTCTGCAC | -0.061
49 | AGCAAGAA | -0.132
50 | AGTTCCCG | -0.0372

Row | Sequence | PBM E-score
51 | CGCTTCCG | 0.133
52 | AACTAGGC | -0.192
53 | ACCGGACT | -0.0079
54 | CAGCGATG | -0.0769
55 | GAGTTGAC | 0.0435
56 | GAGCCAAC | -0.286
57 | CAGTCCTA | 0.0184
58 | AGGGCTGC | -0.264
59 | GAAACCCC | -0.219
60 | CATCAGAA | -0.0549
61 | GGACACGA | 0.043
62 | GGGTTTGA | 0.121
63 | GTGTGTCA | 0.219
64 | ATTTCGGA | 0.0608
65 | ATCTTACG | 0.0708
66 | AAGTTTGG | 0.0771
67 | CCGCCGAG | -0.108
68 | AATAGAGG | -0.153
69 | ATTAACGA | 0.277
70 | AACTGCGG | -0.15
71 | CGACAACG | 0.218
72 | AACATGTC | 0.203
73 | GACAGACA | 0.119
74 | ATTCGGGA | 0.114
75 | CCATCGTA | 0.293

Row | Sequence | PBM E-score
76 | AATTCTTA | -0.0248
77 | CCCGGGAA | -0.173
78 | ACCGCAAA | 0.0975
79 | ATTATCTG | 0.0187
80 | CTGGAGGC | -0.178
81 | CTTTGCCA | 0.0118
82 | AGTTTATC | 0.173
83 | ATTGCGGC | -0.119
84 | GGTACTTA | 0.0705
85 | ACCTTTGC | -0.0683
86 | ATAGAGTC | -0.114
87 | CCAGTGGG | -0.291
88 | CCGTAGCA | 0.0887
89 | CATTGACG | 0.257
90 | GAACGAAA | 0.0353
91 | AGGTTAAC | -0.114
92 | CCGTCCGA | 0.171
93 | ACACGTCC | -0.0608
94 | AGAGTATG | -0.049
95 | CCAATTTC | -0.0137
96 | CGATACAG | -0.0796
97 | CCGGGAAG | -0.0968
98 | AAGATCGC | 0.169
99 | AAATCGCT | 0.0616
100 | CAGTAGCC | -0.0691

Row | Sequence | PBM E-score
101 | ATATCTCC | 0.0235
102 | GTGAAGAA | 0.115
103 | ATGGACAG | -0.0977
104 | CCCCAAAG | -0.22
105 | GGAAATCA | 0.176
106 | GTCGAGAA | 0.0989
107 | AGGTGCAA | -0.153
108 | ATATGTTG | 0.102
109 | AAGGCCAG | -0.0747
110 | AGCGTACT | -0.0636
111 | CTACCAAG | -0.0716
112 | CAACGAAG | 0.139
113 | TACTTGAA | 0.179
114 | GCAGTACA | -0.0702
115 | AGACCAAT | -0.0446
116 | AGGGCGGG | -0.0938
117 | CGAGAATA | 0.0831
118 | ACACACAC | -0.0838
119 | GGATTACA | -0.101
120 | AGTGATAT | 0.442
121 | CATCTTGG | 0.0466
122 | CATCGGCA | -0.063
123 | CGAAGTAC | 0.0735
124 | GAAGGGGC | -0.242
125 | TGAGAACA | 0.0414

Row | Sequence | PBM E-score
126 | AAACGCGA | 0.161
127 | GTCGCGTA | 0.244
128 | ATCGCCAT | 0.104
129 | ATCCGCTC | -0.229
130 | ATAAAGAC | 0.119
131 | ATTAAAAG | -0.103
132 | AAGCGAGT | 0.0341
133 | ACTTATAG | -0.0527
134 | CGTCGGCC | 0.161
135 | GACTTGGC | -0.216
136 | GAGCCTTA | -0.148
137 | ATGACAAG | 0.282
138 | GCAAAACA | -0.053
139 | GTCATTCA | 0.195
140 | GTACGTAC | -0.0114
141 | CCCTCGAC | -0.149
142 | CGCGGGGA | -0.155
143 | ACCCGTAA | 0.0373
144 | AATACTAT | -0.00924
145 | ATCTATCA | 0.202
146 | CTGCAACA | 0.0449
147 | CCTGTGTA | 0.0747
148 | AAGATATA | 0.162
149 | AGGGTGTC | -0.00393
150 | CAGGAGAG | -0.155

Some of the entries above in a different format:

| Row | Sequence | PBM E-score |
| --- | --- | --- |
| 144 | AATACTAT | -0.00924 |
| 145 | ATCTATCA | 0.202 |
| 146 | CTGCAACA | 0.0449 |

(continued)

Row | Sequence | PBM E-score
151 | CCAAGAGG | -0.0611
152 | AGAGCAAA | -0.12
153 | AGAGATAC | 0.121
154 | CCCCCTCG | -0.316
155 | GTCTGCTA | -0.00168
156 | ATAGAATA | 0.138
157 | AAGGAGGC | -0.345
158 | CAAGACCA | -0.237
159 | ATTATGGG | 0.00349
160 | ACTTCTGC | -0.149
161 | CATGACGC | -0.0731
162 | ACTTGTTG | -0.157
163 | CTTACCCC | -0.303
164 | CTCAGAAA | 0.0389
165 | CGGCTCTA | -0.122
166 | ACCAATAT | 0.109
167 | ATGTACCG | 0.094
168 | AAGGAGTG | -0.226
169 | CAGACTAA | 0.0203
170 | AAGAGACG | 0.0591
171 | AGTACGCA | -0.0914
172 | CGCCAAGC | -0.149
173 | AACAGCAA | -0.106
174 | ACCTCGCA | 0.00639
175 | AACCGTGA | 0.14

Row | Sequence | PBM E-score
176 | ACACACGC | 0.118
177 | GAGACCTC | -0.0238
178 | CTCGGCGC | -0.0963
179 | CACGGTGA | 0.308
180 | CGGCCATA | -0.0898
181 | ACGCAATG | 0.0245
182 | CAGCATAG | 0.0372
183 | CAGAGTCG | -0.146
184 | AGGTCTTA | -0.146
185 | ATGTAAAG | 0.0506
186 | CGCCATAG | -0.0608
187 | ATAGCACC | -0.0261
188 | GATTACAC | 0.0768
189 | GCAAGGGA | -0.0292
190 | ATATTATC | 0.224
191 | ACCTTCAC | 0.0414
192 | AGCGGGTG | -0.0513
193 | CTAGGCCC | -0.222
194 | CATAGCCA | -0.118
195 | AGTCGCTA | 0.0472
196 | ATCCTATA | 0.0917
197 | ATGTCCAC | 0.0602
198 | GACCGTAC | 0.247
199 | CACTGAAA | -0.00858
200 | CAAGTCCC | -0.164

Quoted from above: entries 169 to 170
Row | Sequence | PBM E-score
169 | CAGACTAA | 0.0203
170 | AAGAGACG | 0.0591

Later entries.

Row | Sequence | PBM E-score
201 | GTGGGACA | 0.118
202 | ACGTCACC | 0.22
203 | CGATAATC | 0.0719
204 | ACACCAGG | -0.259
205 | AAATCAAC | -0.0454
206 | CTCGCTCC | -0.00865
207 | ACGCGGGC | -0.0155
208 | AATACGCA | -0.0279
209 | AGGTATTC | 0.135
210 | GTCGCCTA | -0.0479
211 | AGCGAGCA | -0.0257
212 | CGAGCCAA | -0.246
213 | CCACGGAC | -0.292
214 | CCCGTGTA | 0.116
215 | CAGAGCGG | -0.136
216 | AGTTGTTG | -0.0372
217 | CCTGCCTA | -0.185
218 | ATATACTA | 0.13
219 | TCAGTCGA | 0.149
